Experimental data taken from publication PMC4669792.
Numbering of substitutions follows the chain as printed. No constants are given. Whether binding was seen depends on the method and setting. Binding seen in cells or lysates may run through a third protein. Some binding calls cover weakened binding; strength is not graded here. For some assays here: Tags and fused reporters may be left off the sequences shown. Each block holds one molecule with its values, some of them ahead of it.

The chains behind the UniProt entries cited, without tags or fusion partners.
UniProt Q9WTX6: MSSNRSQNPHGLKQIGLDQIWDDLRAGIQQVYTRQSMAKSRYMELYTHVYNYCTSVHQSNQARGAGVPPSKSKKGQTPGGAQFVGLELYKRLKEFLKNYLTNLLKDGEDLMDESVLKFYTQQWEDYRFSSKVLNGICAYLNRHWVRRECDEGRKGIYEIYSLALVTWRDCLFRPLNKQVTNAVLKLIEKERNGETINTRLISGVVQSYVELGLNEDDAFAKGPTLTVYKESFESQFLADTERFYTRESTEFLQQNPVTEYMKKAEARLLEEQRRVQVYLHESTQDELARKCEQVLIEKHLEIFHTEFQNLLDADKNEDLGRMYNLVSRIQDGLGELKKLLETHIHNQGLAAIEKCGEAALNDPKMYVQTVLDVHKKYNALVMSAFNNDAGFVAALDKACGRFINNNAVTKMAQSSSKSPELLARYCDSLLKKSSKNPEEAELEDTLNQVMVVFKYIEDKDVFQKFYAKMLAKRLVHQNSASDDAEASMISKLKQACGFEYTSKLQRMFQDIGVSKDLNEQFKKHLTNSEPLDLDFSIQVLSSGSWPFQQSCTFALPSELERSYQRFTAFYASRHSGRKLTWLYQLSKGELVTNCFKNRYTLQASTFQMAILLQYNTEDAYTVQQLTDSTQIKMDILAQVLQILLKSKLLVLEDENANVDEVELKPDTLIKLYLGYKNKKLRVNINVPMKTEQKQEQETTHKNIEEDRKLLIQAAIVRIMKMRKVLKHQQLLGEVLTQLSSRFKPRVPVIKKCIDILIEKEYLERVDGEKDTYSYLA

What was measured:
[1] = target: T1, Fbxl7 WT-V5 (synthesized in TNT reticulocyte lysate) (UniProt Q9UJT9); assay: co-IP; Fbxl7 proteins synthesized in TNT reticulocyte lysate mixed with MLE12 cell lysates, i.p. by V5 antibody, immunoblotted for V5, Cul1, Skp1
T1 sequence: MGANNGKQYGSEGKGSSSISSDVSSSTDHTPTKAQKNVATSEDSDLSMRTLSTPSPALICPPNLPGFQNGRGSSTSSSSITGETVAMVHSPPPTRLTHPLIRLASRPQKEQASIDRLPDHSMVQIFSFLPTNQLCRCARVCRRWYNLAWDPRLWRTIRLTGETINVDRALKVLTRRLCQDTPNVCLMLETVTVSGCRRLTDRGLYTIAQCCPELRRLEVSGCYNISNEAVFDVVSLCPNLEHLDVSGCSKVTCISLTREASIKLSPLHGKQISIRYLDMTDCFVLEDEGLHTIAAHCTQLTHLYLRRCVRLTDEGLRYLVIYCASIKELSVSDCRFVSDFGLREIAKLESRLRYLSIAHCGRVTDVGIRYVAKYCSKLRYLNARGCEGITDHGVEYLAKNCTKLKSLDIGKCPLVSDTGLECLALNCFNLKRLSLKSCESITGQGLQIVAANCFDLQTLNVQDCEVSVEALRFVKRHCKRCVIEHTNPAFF

[2] = target: T2, Fbxl7 FQ-V5 (Fbxl7^F67AQ68A-V5, synthesized in TNT reticulocyte lysate) (UniProt Q9UJT9); assay: as above
T2 sequence: T1 sequence with F67A, Q68A

[3] = target: T3, Fbxl18 (co-immunoprecipitation of Supplementary Figure 1A) (UniProt Q96ME1); assay: co-IP; co-immunoprecipitation of Fbxl7 with randomly chosen F-box proteins (Supplementary Figure 1A); cells and bait not given
T3 sequence: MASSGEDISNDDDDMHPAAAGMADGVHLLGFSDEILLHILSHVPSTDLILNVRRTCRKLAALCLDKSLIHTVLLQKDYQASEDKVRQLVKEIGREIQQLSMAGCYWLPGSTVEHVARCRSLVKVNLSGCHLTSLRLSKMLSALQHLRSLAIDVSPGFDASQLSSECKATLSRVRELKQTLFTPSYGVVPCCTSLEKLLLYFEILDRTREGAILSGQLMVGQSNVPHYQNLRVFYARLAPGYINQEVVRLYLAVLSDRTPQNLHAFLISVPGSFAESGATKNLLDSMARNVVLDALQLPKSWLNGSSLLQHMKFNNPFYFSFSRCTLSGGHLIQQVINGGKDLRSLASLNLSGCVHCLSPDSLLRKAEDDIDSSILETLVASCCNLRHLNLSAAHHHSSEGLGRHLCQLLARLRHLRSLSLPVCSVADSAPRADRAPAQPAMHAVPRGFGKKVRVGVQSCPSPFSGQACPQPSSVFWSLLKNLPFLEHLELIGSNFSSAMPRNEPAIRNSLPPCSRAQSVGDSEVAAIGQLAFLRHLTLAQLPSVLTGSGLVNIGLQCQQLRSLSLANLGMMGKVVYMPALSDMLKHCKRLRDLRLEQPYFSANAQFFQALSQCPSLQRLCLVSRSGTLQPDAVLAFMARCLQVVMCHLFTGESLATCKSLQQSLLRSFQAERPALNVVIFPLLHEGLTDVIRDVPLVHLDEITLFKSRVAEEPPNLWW

[4] = target: T4, Fbxl18 (endogenous, Hela cells) (human (endogenous in Hela)) (UniProt Q96ME1); assay: co-IP; Hela cell lysates i.p. with endogenous Fbxl18 antibody, analysed by Fbxl7 immunoblotting; both endogenous
T4 sequence: T3 sequence

[5] = target: T4, Fbxl18 (endogenous, Hela cells) (human (endogenous in Hela)); assay: co-IP; Hela cell lysates i.p. with Fbxl18 antibody, then mixed with V5-tagged Fbxl7 proteins synthesized in reticulocyte lysate; eluates blotted for Fbxl18 (bait) and V5

Molecule: Cul1 (endogenous, MLE12 cells) (from UniProt Q9WTX6 1-776)
- binding [1]: binds
- binding [2]: binds

B2: Fbxl7 (endogenous, Hela cells) (protein, UniProt Q9UJT9 1-491)
chain: T1 sequence
- binding [4]: binds

Further lines, results first:

- binding [3]: binds
B1: Fbxl7 (co-immunoprecipitation of Supplementary Figure 1A) (protein, UniProt Q9UJT9 1-491)
chain: T1 sequence

- binding [5]: binds
B3: Fbxl7 WT-V5 (synthesized in TNT reticulocyte lysate) (protein, UniProt Q9UJT9 1-491)
chain: T1 sequence
